Some peptides are written in HELM: one residue between dots, names in brackets for other building blocks, links after the first $.

A short description of the series: general procedure: solution-phase peptide synthesis.

PEPTIDE1{[LA].R.G.D.V}$$$$V2.0 returned a conjugation yield (conjugation step, final yield) of 14.2%. Further, for the setting “whole synthesis, LC-MS”, the “final LC-MS purity” value is reported as “exceeded 98%”.

(Values after publication PMC11591307 (Antioxidants, 2024).)
